In article PMC8048842 (Chembiochem, 2021):

Test system: BON and BON‐SSTR2 tumors
Assay: Histological ex vivo examination of tumor sections (confocal laser scanning microscopy)
Assay type: in vivo, mouse
Conditions: 6 nmol i.v., mice n=3 sacrificed 5 h p.i., P=0.005 vs wild‐type

## C[C@@H](O)[C@H](NC(=O)[C@@H]1CSSC[C@H](NC(=O)[C@@H](Cc2ccccc2)NC(=O)c2ccc3c(c2)C(C)(C)/C(=C/C=C/C2=[N+](C)c4ccc(CNC(=O)CNC(=O)CN5CCN(CC(=O)O)CCN(CC(=O)O)CCN(CC(=O)O)CC5)cc4C2(C)C)N3CCCCS(=O)(=O)[O-])C(=O)N[C@@H](Cc2ccc(O)cc2)C(=O)N[C@H](Cc2c[nH]c3ccccc23)C(=O)N[C@@H](CCCCN)C(=O)N[C@@H]([C@@H](C)O)C(=O)N1)C(=O)O [^natGa‐DOTA‐ICC‐TATE, metal not drawn]
  ICC fluorescence in SSTR2‐overexpressing tumor sections (mean grey value): 32.8±5.4
